PubChem BioAssay AID686937 – Drosophila RNAi Screening Center | 2013
Test: 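Genes whose loss weakens secretory pathway function in fly cells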 (primary screen). System: Drosophila S2 cells expressing secreted horseradish peroxidase. Knock-down reagent: long dsRNA against Drosophila genes. Timing: about 5.5 days (5 days dsRNA, then 12 h reporter induction). Challenge: reporter expression induced after 5 days of dsRNA, read 12 h later; inducer not stated. Detection: 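Chemiluminescent measurement of peroxidase in the medium 12 h after reporter induction, following 5 days of dsRNA, given as a z-score per plate; higher means more secretion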. Direction: z-score: higher = more reporter secreted into medium.
In all, the deposit lists about 23,000 reagents; below is an unselected part of those with a known target gene and a result. 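Reduced-secretion tags in replicate 1 do not always agree with the z-scores; no criterion for assigning the tags was given.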 Not all columns of the deposit are shown. Not stated in the record: the amount of reagent.

Orc2 (Origin recognition complex subunit 2) [DRSC16776] | z-score, replicate 1: 0.21
Arf6 (ADP ribosylation factor 6) [DRSC05921] | z-score, replicate 1: 0.15
CG8180 [DRSC07092] | z-score, replicate 1: 0.36
CG8180 [DRSC07093] | z-score, replicate 1: -0.89
SmF (Small ribonucleoprotein particle protein SmF) [DRSC07397] | z-score, replicate 1: -2.5; phenotype, replicate 1: reduced secretion
Cpr47Eg (Cuticular protein 47Eg) [DRSC07330] | z-score, replicate 1: 0.1
CG11370 [DRSC11653] | z-score, replicate 1: -0.15
CG18266 [DRSC02659] | z-score, replicate 1: 0.3
CG17650 [DRSC00510] | z-score, replicate 1: 0.31
CG16957 [DRSC02545] | z-score, replicate 1: 0.49
CG3894 [DRSC01762] | z-score, replicate 1: 0.22
CG3894 [DRSC04012] | z-score, replicate 1: 0.52
CG3894 [DRSC04429] | z-score, replicate 1: 0.17
Nep6 (Neprilysin 6) [DRSC19877] | z-score, replicate 1: 0.03
Gba1a (Glucocerebrosidase 1a) [DRSC21494] | z-score, replicate 1: 0.55
CG5756 [DRSC06950] | z-score, replicate 1: 0.17
Fum3 (Fumarase 3) [DRSC10592] | z-score, replicate 1: 0.36
CSN1b (COP9 signalosome subunit 1b) [DRSC11108] | z-score, replicate 1: -0.64
CG32112 [DRSC09815] | z-score, replicate 1: 0.1
CG14322 [DRSC14801] | z-score, replicate 1: 0.5
CG8785 [DRSC07266] | z-score, replicate 1: 0.46
Caf1-55 (Chromatin assembly factor 1, p55 subunit) [DRSC16596] | z-score, replicate 1: 0.42
CG13055 [DRSC09936] | z-score, replicate 1: -0.14
CG11695 [DRSC19416] | z-score, replicate 1: 0.39
mRpL24 (mitochondrial ribosomal protein L24) [DRSC03113] | z-score, replicate 1: 0.06
CG15577 [DRSC18065] | z-score, replicate 1: 0.23
CG9945 [DRSC07347] | z-score, replicate 1: -0.06
CG4476 [DRSC10424] | z-score, replicate 1: 0.47
Nemp (Nuclear envelope integral membrane protein) [DRSC20206] | z-score, replicate 1: 0.34
CG30345 [DRSC05144] | z-score, replicate 1: -0.07
CG13901 [DRSC08371] | z-score, replicate 1: 0.32
CG32189 [DRSC09511] | z-score, replicate 1: 0.58
CG32568 [DRSC19913] | z-score, replicate 1: 0.16
CG10939 [DRSC06019] | z-score, replicate 1: -0.45
CG10939 [DRSC21734] | z-score, replicate 1: 3.26
Polr2A (RNA polymerase II subunit A) [DRSC20280] | z-score, replicate 1: -5.59; phenotype, replicate 1: reduced secretion
PolH (DNA polymerase eta) [DRSC11800] | z-score, replicate 1: 0.26
rasp [DRSC08191] | z-score, replicate 1: 0.23
CG16978 [DRSC02553] | z-score, replicate 1: -0.21
pinta [DRSC14698] | z-score, replicate 1: 0.25

Look-ups from the entries so far.
For “z-score, replicate 1”, CG8785 [DRSC07266] reads 0.46
Entry of CG8180 [DRSC07093] in “z-score, replicate 1”: -0.89
Caf1-55 (Chromatin assembly factor 1, p55 subunit) [DRSC16596], z-score, replicate 1 → 0.42
CG15577 [DRSC18065], z-score, replicate 1 → 0.23
